From PubChem BioAssay record AID1963991 (NCATS, 2024).

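Viability of UOK109 TFE3-fusion renal carcinoma cells after 48 h of compound exposure, read as ATP luminescence with CellTiter-Glo. Each compound was run as a concentration series, and the potency comes from that titration. The number is the fitted AC50 for loss of viability; a lower value means a more potent compound. All of these compounds are filed inconclusive. An active call needs an area-under-curve z-score below -0.8 in all three TFE3-fusion lines, and an inactive call needs flat class-4 curves in all three.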

Values are in nM. All entries here are filed as inconclusive. These entries are mostly ones the record files as inconclusive; other results of the assay are not listed here. A potency from a partial, single-point or poor curve is only a rough figure. Some entries filed as inconclusive have a full curve. Activity scores are not listed here.

SMILES | condition | Potency (nM) | curve as filed
CC[C@]12C=CCN3CC[C@@]4(c5cc([C@@]6(C(=O)OC)C[C@H]7C[C@@H](C(C)(F)F)CN(Cc8c6[nH]c6ccccc86)C7)c(OC)cc5N(C)[C@H]4[C@@](O)(C(=O)OC)[C@H]1OC(C)=O)[C@@H]32 | active = Z-AUC below -0.8 in all three lines | 295.7 | falling, full curve
CC=C(C)C(=O)O[C@H]1C(C)=C2[C@@H]3OC(=O)[C@@](C)(O)[C@@]3(O)[C@@H](OC(=O)CCC)C[C@](C)(OC(C)=O)[C@@H]2[C@@H]1OC(=O)CCCCCCC | - | 3317 | falling, partial curve
CC(C)Cn1cnc2c(N)nc3ccccc3c21 | active = Z-AUC below -0.8 in all three lines | 26350 | falling, partial curve
CN(C)CCC=C1c2ccccc2COc2ccc(CC(=O)O)cc21 | active = Z-AUC below -0.8 in all three lines | 37221 | falling, partial curve, poor fit
Cc1cc(Cl)ccc1OCCCC(=O)NO | active = Z-AUC below -0.8 in all three lines | 7427 | falling, full curve
CC(C)n1cnc2c(NCCc3ccc(O)cc3)nc(-c3csc4ccccc34)nc21 | active = Z-AUC below -0.8 in all three lines | 16626 | falling, partial curve
Nc1nc(N)c2nc(-c3cccc(O)c3)c(-c3cccc(O)c3)nc2n1 | active = Z-AUC below -0.8 in all three lines | 3722 | falling, partial curve
C[C@]12CC[C@@H]3c4ccc(OC(=O)N(CCCl)CCCl)cc4CC[C@H]3[C@@H]1CC[C@@H]2OP(=O)(O)O | - | 2348 | -
Oc1c(Cl)cc(Cl)c2cccnc12 | active = Z-AUC below -0.8 in all three lines | 20930 | falling, single point
N#C[C@H](O[C@@H]1O[C@H](CO[C@@H]2O[C@H](CO)[C@H](O)[C@H](O)[C@H]2O)[C@H](O)[C@H](O)[C@H]1O)c1ccccc1 | - | 23484 | falling, partial curve
C=Cc1c(C)c2cc3nc(cc4[nH]c(cc5nc(cc1[nH]2)C(C)=C5CCC(=O)O)c(CCC(=O)OC)c4C)[C@@]1(C)C3=CC=C(C(=O)OC)[C@H]1C(=O)OC | active = Z-AUC below -0.8 in all three lines | 468.6 | falling, full curve
CCOC(=O)N1CCN([N+]([O-])=NOc2cc(ON=[N+]([O-])N3CCN(C(=O)OCC)CC3)c([N+](=O)[O-])cc2[N+](=O)[O-])CC1 | active = Z-AUC below -0.8 in all three lines | 1049 | -
Cn1cnc2c1c(=O)[nH]c(=O)n2C | active = Z-AUC below -0.8 in all three lines | 20930 | falling, single point
CC(=O)NCC(=O)N1[C@H]2CC[C@H]1c1cc(Nc3ncc(C(F)(F)F)c(NC4CCC4)n3)ccc12 | active = Z-AUC below -0.8 in all three lines | 14817 | falling, partial curve
C[C@H](Cc1ccc(O)c(O)c1)[C@@H](C)Cc1ccc(O)c(O)c1 | active = Z-AUC below -0.8 in all three lines | 16626 | falling, partial curve, poor fit
CNC(=O)c1ccccc1Nc1nc(Nc2ccc(N3CCOCC3)cc2OC)ncc1Cl | active = Z-AUC below -0.8 in all three lines | 6619 | falling, partial curve
Cc1ccc(S(=O)(=O)Nc2cc(Cl)ccc2C(=O)Nc2nc(-c3ccccc3)cs2)cc1 | active = Z-AUC below -0.8 in all three lines | 4686 | falling, partial curve, poor fit
CC1CCN(c2cc(N3CCN(C)CC3)ccc2NC(=O)c2cc(C#N)c[nH]2)CC1 | active = Z-AUC below -0.8 in all three lines | 29565 | -
CN(C)CC[C@H](c1ccc(Cl)cc1)c1ccccn1 | active = Z-AUC below -0.8 in all three lines | 37221 | falling, partial curve, poor fit
COc1cc2c(Nc3ccc(Br)cc3F)ncnc2cc1OCC1CCN(C)CC1 | active = Z-AUC below -0.8 in all three lines | 4176 | falling, partial curve
CC[C@H](Nc1ncnc2nc[nH]c12)c1nc2cccc(F)c2c(=O)n1-c1ccccc1 | active = Z-AUC below -0.8 in all three lines | 58.99 | falling, full curve
CN(C)CC=CC(=O)Nc1cc2c(Nc3ccc(F)c(Cl)c3)ncnc2cc1O[C@H]1CCOC1 | active = Z-AUC below -0.8 in all three lines | 20930 | falling, partial curve
COc1cccc2c(NCc3ccccc3)nc(-n3c(N)nc4ccccc43)nc12 | active = Z-AUC below -0.8 in all three lines | 23484 | falling, partial curve
O=C1CCC[C@@H]2[C@H]3CCCN4CCC[C@@H](CN12)[C@@H]34 | - | 1.049 | -
CC(C)C[C@@H](C=O)NC(=O)[C@H](CC(C)C)NC(=O)[C@H](CC(C)C)NC(=O)OCc1ccccc1 | active = Z-AUC below -0.8 in all three lines | 7427 | falling, partial curve
C[C@@H]1CN(CC(=O)Nc2ccc3c(c2)Cc2cccc(-c4cc(=O)cc(N5CCOCC5)o4)c2S3)C[C@H](C)O1 | active = Z-AUC below -0.8 in all three lines | 9350 | falling, partial curve, poor fit
CN1[C@H]2CC(O)C[C@H]1[C@H]1O[C@H]12 (stereo partly drawn) | - | 20930 | falling, partial curve
COc1ccc(C(=O)c2c(C)n(CCN3CCOCC3)c3cc(I)ccc23)cc1 | - | 18654 | falling, partial curve, poor fit
CCc1cc(C(N)=S)ccn1 | active = Z-AUC below -0.8 in all three lines | 20930 | -
CCC1=C[C@@H]2CN(C1)Cc1c([nH]c3ccccc13)[C@@](C(=O)OC)(c1cc3c(cc1OC)N(C)[C@@H]1[C@@](O)(C(=O)OC)[C@H](OC(C)=O)[C@]4(CC)C=CCN5CC[C@]31[C@@H]54)C2 | active = Z-AUC below -0.8 in all three lines | 5258 | falling, partial curve
CN(C)CCN(C)CCc1ccc(Cl)c(Cl)c1 | - | 20930 | -
COc1cccc2cc(-c3nc(C4CCC(C(=O)O)CC4)n4ncnc(N)c34)[nH]c12 (stereo not drawn) | active = Z-AUC below -0.8 in all three lines | 1663 | falling, full curve
Cn1cnc([N+](=O)[O-])c1Sc1ncnc2nc[nH]c12 | active = Z-AUC below -0.8 in all three lines | 742.7 | falling, full curve
O=C(CCCN1CCN(c2ccc(F)cc2)CC1)NC1c2ccccc2CSc2ccccc21 (stereo not drawn) | active = Z-AUC below -0.8 in all three lines | 11770 | falling, partial curve, poor fit

Some entries from above, unchanged:

SMILES	condition	Potency (nM)	curve as filed
COc1cccc2cc(-c3nc(C4CCC(C(=O)O)CC4)n4ncnc(N)c34)[nH]c12 (stereo not drawn)	active = Z-AUC below -0.8 in all three lines	1663	falling, full curve
COc1ccc(C(=O)c2c(C)n(CCN3CCOCC3)c3cc(I)ccc23)cc1	-	18654	falling, partial curve, poor fit